Reference: the supplement of paper PMC12889115
The list shows a part of the results. Values are raw readings; no control value is given beside them.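 In the initial screen, polymyxin B was used at a concentration that permeabilizes Salmonella's outer membrane but not its inner membrane. Maximum growth was set by DMSO wells with or without polymyxin B. Since plates varied, data were ranked per plate, and compounds giving the lowest OD600 advanced as hits.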

Tested on: Salmonella enterica serovar Typhimurium SL1344
Assay: bacterial growth OD600 after 18 h with compound and polymyxin B; higher = more bacterial growth (less inhibition)
Settings: 50 µM, Mueller-Hinton broth

Row | Compound | bacterial growth OD600 (polymyxin B 1 µg/mL) | bacterial growth OD600 (polymyxin B 0.75 µg/mL)
1 | COc1cc(F)ccc1CN1CCC(n2nccc2NC(=O)CC(C)C)CC1 | 0.935 | –
2 | CC1(C)CC(Nc2ccc(-c3nc(Cc4ccccc4)no3)cn2)CCO1 (stereo unspecified) | 0.736 | –
3 | CN(CCC1CCCCO1)C(=O)CCc1nnc(Cc2c[nH]c3ccccc23)o1 (stereo unspecified) | 0.876 | –
4 | Cn1ccnc1CNC(=O)CC(c1ccccc1)c1ccccc1F (stereo unspecified) | – | 0.797
5 | COc1ccc(CC(=O)N2CCOc3ccc(CN4CCN(Cc5ccccn5)CC4)cc3C2)cc1 | – | 0.863
6 | COc1ccc(F)c(CN2CCCC3(CCN(C(=O)C(C)(C)C)C3)C2=O)c1 (stereo unspecified) | 0.705 | –
7 | COc1cccc(CC(C2CCN(C(=O)Cc3csc(C)n3)CC2)N(C)C(=O)CC(C)C)c1 (stereo unspecified) | – | 0.792
8 | CO[C@H]1[C@H](NC(=O)Cc2cccs2)c2ccccc2C12CCN(Cc1cccc(C)c1)CC2 | – | 0.74
9 | COc1ccc(F)c(CN2CCCC3(CCN(C(=O)c4cn5ccccc5n4)C3)C2)c1 (stereo unspecified) | – | 0.844
10 | COC(=O)c1cccc(-c2cc(Cl)c3c(c2)CC(CNC(=O)CSC)O3)c1 (stereo unspecified) | – | 0.441
11 | O=C(CCC1CCCN(CCc2ccccc2)C1)Nc1ccccc1F (stereo unspecified) | 1.19 | –
12 | CN(CCc1ccccn1)C(=O)CCC1CCCN(C(=O)Cn2cnc3ccccc32)C1 (stereo unspecified) | 0.95 | –
13 | O=C(NCc1c(F)cccc1Cl)c1cc(CN2CCCC(O)C2)on1 (stereo unspecified) | 1.12 | –
14 | CCc1noc(C)c1C(=O)NCc1cccnc1N(C)Cc1ccccc1 | 0.857 | –
15 | CCOC(=O)N1CCN(Cc2ccc3c(c2)CN(C(=O)Cc2ccc4c(c2)OCO4)CCO3)CC1 | – | 0.865
16 | CC1CCN(Cc2nnnn2CC(=O)NC(C)c2cnn(-c3ccccc3)c2)CC1 (stereo unspecified) | – | 0.76

Row | Compound | bacterial growth OD600 (polymyxin B 1 µg/mL) | bacterial growth OD600 (polymyxin B 0.75 µg/mL)
17 | COc1ccccc1C1CN(Cc2c(C)n(C)n(-c3ccccc3)c2=O)Cc2ccccc2O1 (stereo unspecified) | – | 0.019
18 | O=C(Cn1cccn1)NCc1cccnc1Oc1cccc(C(F)(F)F)c1 | – | 0.653
19 | COc1ccc(CC2(CCC(=O)N(C)Cc3nc4cc(C)c(C)cc4[nH]3)CCC(=O)N2)c(F)c1 (stereo unspecified) | – | 0.85
20 | CCOc1cccc(CNC(C)c2cnn(-c3ccccc3)c2C)c1 (stereo unspecified) | – | 0.836
21 | CC(c1ccon1)N(C)Cc1c(C(=O)N(C)CCc2ccccc2)nc2sccn12 (stereo unspecified) | 0.925 | –
22 | COc1ccc(CC2(CCC(=O)N3CCN(C4CCCCC4)C(=O)C3)CCC(=O)N2)c2ccccc12 (stereo unspecified) | – | 0.734
23 | COCCCn1c(CN2CC[C@@H]3CCCC[C@H]3C2)cnc1S(=O)(=O)C1CCCC1 | 0.765 | –
24 | CCc1ccc(CN2C[C@H](O)[C@@H](N3CCOCC3)C2)cc1 | – | 0.831
25 | Cc1ccc(CN2CCC(CN(C)Cc3nc4ccccc4[nH]3)CC2)o1 | 0.948 | –
26 | Cc1ccccc1Oc1ncccc1CNCc1ccccn1 | – | 1.01
27 | COC(=O)c1ccc(CN2CCOc3ccc(C(C)(O)COc4ccccc4)cc3C2)cc1 (stereo unspecified) | – | 0.014
28 | CCNC(=O)c1cn(CC(C)C)cc(C(=O)NCc2ccc(F)cc2)c1=O | – | 0.824
29 | COCC1CCCN(Cc2nc(C(c3ccccc3)c3ccccc3)no2)C1 (stereo unspecified) | 0.691 | –
30 | COc1ccc(Cc2noc(-c3ccc(N(C)Cc4ccon4)nc3)n2)cc1 | 0.822 | –
31 | CCc1[nH]c2c(CNC(=O)CCN3CCOCC3)cc(F)cc2c1C | 0.96 | –

Full records from above. Values in the order: bacterial growth OD600 (polymyxin B 1 µg/mL)	bacterial growth OD600 (polymyxin B 0.75 µg/mL)
CC1(C)CC(Nc2ccc(-c3nc(Cc4ccccc4)no3)cn2)CCO1 (stereo unspecified) as listed: 0.736	–
O=C(NCc1c(F)cccc1Cl)c1cc(CN2CCCC(O)C2)on1 (stereo unspecified) as listed: 1.12	–
